{"source": "PubChem BioAssay AID686943 (Drosophila RNAi Screening Center, 2013)", "test": "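Search across the genome for regulators of signalling from receptor tyrosine kinase to ERK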 (primary screen)", "cell system": "Drosophila S2R+ haemocyte-like cells expressing YFP-tagged ERK (Rolled)", "knock-down reagent": "long dsRNA against Drosophila genes", "challenge": "insulin stimulation versus unstimulated cells; dose and duration not given", "read-out": "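Antibody staining for doubly phosphorylated ERK divided by ERK-YFP signal, as plate z-scores, in insulin-treated and untreated cells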", "reading the numbers": "replicate 1, z-score of dpERK with insulin and replicate 2, z-score of dpERK with insulin: higher = more active ERK per ERK-YFP after insulin", "note": "The screen tested about 23,000 reagents; this is an unselected part of those with a known target gene and a result. 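Extra replicates exist only for a retested subset of genes; insulin dose and duration not given; both raised and lowered dpERK matter.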 Names joined by + are all predicted targets of the reagent. Not all columns of the deposit are shown. Not given: the amount of reagent, the time to read-out."}
{"target": "CG43052", "amplicon": "DRSC03059", "replicate 1, z-score of dpERK with insulin": 0.07, "replicate 2, z-score of dpERK with insulin": 0.64}
{"target": "Dr (Drop)", "amplicon": "DRSC17002", "replicate 1, z-score of dpERK with insulin": 0.7, "replicate 2, z-score of dpERK with insulin": 0.38}
{"target": "Dr (Drop)", "amplicon": "DRSC22708", "replicate 1, z-score of dpERK with insulin": -1.82, "replicate 2, z-score of dpERK with insulin": -1.57}
{"target": "CysRS-m (Cysteinyl-tRNA synthetase, mitochondrial)", "amplicon": "DRSC07129", "replicate 1, z-score of dpERK with insulin": -0.19, "replicate 2, z-score of dpERK with insulin": -0.51}
{"target": "CG9123", "amplicon": "DRSC20156", "replicate 1, z-score of dpERK with insulin": 1.29, "replicate 2, z-score of dpERK with insulin": 1.6}
{"target": "CG9483", "amplicon": "DRSC03226", "replicate 1, z-score of dpERK with insulin": -0.57, "replicate 2, z-score of dpERK with insulin": -0.16}
{"target": "CG15465", "amplicon": "DRSC18048", "replicate 1, z-score of dpERK with insulin": 0.35, "replicate 2, z-score of dpERK with insulin": 0.33}
{"target": "CG7387", "amplicon": "DRSC10833", "replicate 1, z-score of dpERK with insulin": 0.52, "replicate 2, z-score of dpERK with insulin": -0.63}
{"target": "CG31910 + snoRNA:Me28S-G2743 (retired record)", "amplicon": "DRSC00946", "replicate 1, z-score of dpERK with insulin": -0.14, "replicate 2, z-score of dpERK with insulin": -0.94}

Records above whose target name starts with D or d:
{"target": "Dr (Drop)", "amplicon": "DRSC17002", "replicate 1, z-score of dpERK with insulin": 0.7, "replicate 2, z-score of dpERK with insulin": 0.38}
{"target": "Dr (Drop)", "amplicon": "DRSC22708", "replicate 1, z-score of dpERK with insulin": -1.82, "replicate 2, z-score of dpERK with insulin": -1.57}

More records follow.
{"target": "CG13113", "amplicon": "DRSC02211", "replicate 1, z-score of dpERK with insulin": -0.28, "replicate 2, z-score of dpERK with insulin": -0.13}
{"target": "CG9664", "amplicon": "DRSC00725", "replicate 1, z-score of dpERK with insulin": 0.25, "replicate 2, z-score of dpERK with insulin": -0.44}
{"target": "Rpt6 (Regulatory particle triple-A ATPase 6)", "amplicon": "DRSC20571", "replicate 1, z-score of dpERK with insulin": -0.38, "replicate 2, z-score of dpERK with insulin": 0.05}
{"target": "CG11034", "amplicon": "DRSC02121", "replicate 1, z-score of dpERK with insulin": 0.67, "replicate 2, z-score of dpERK with insulin": -0.33}
{"target": "CG11034", "amplicon": "DRSC02122", "replicate 1, z-score of dpERK with insulin": 0.39, "replicate 2, z-score of dpERK with insulin": 0.48}
{"target": "Pdk (Pyruvate dehydrogenase kinase)", "amplicon": "DRSC07504", "replicate 1, z-score of dpERK with insulin": 0.04, "replicate 2, z-score of dpERK with insulin": 4.43}
{"target": "Ptth (Prothoracicotropic hormone)", "amplicon": "DRSC00356", "replicate 1, z-score of dpERK with insulin": 0.5, "replicate 2, z-score of dpERK with insulin": -0.28}
{"target": "CG16904", "amplicon": "DRSC15161", "replicate 1, z-score of dpERK with insulin": 0.13, "replicate 2, z-score of dpERK with insulin": -0.05}
{"target": "ecd (ecdysoneless)", "amplicon": "DRSC08574", "replicate 1, z-score of dpERK with insulin": 0.83, "replicate 2, z-score of dpERK with insulin": 0.26}
{"target": "CR43670 + CR43671 + CR43669", "amplicon": "DRSC01554", "replicate 1, z-score of dpERK with insulin": 0.72, "replicate 2, z-score of dpERK with insulin": 0.06}
{"target": "CR43670 + CR43671 + CR43669", "amplicon": "DRSC01556", "replicate 1, z-score of dpERK with insulin": 0.68, "replicate 2, z-score of dpERK with insulin": -0.09}
{"target": "CG3251", "amplicon": "DRSC00586", "replicate 1, z-score of dpERK with insulin": -0.43, "replicate 2, z-score of dpERK with insulin": -0.06}
